Some of the results follow. Shown are side measurements of this screen, not its main read-out; they come without a call. Compounds called inactive in the main read-out are mostly missing here. Words in brackets tell the shape of the fitted curve; partial curves, single points and poor fits give uncertain potencies.

A short description of this experiment: qHTS Assay to Find Inhibitors of Chronic Active B-Cell Receptor Signaling. The note with it: ABC-DLBCL IkBa-CBG/CBR reporter, luminescence ratio (green luciferase fused to IkBa over red control in TMD8 lymphoma cells), 4 h; measured here: CBR red luminescence, cell number. In a few lines: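 Cell line TMD8 (human ABC DLBCL), stably expressing tet-inducible CBG68-IkBa fusion and CBR; IMDM/0.5% FBS; cpd up to 46 uM; dox induction, 4 h, 37C/5% CO2; dual luminescence; green/red ratio; MG132 control.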
For the compound `COc1ccccc1NC(=O)Cc1nnc(SCC(=O)c2ccc(F)cc2)n1C`, the half-maximal activity concentration (AC50) is 2 µM [falling, partial curve, poor fit]. Next, `O=S(=O)(c1cccc(C(F)(F)F)c1)N(CCCN1CCOCC1)Cc1cccs1`: 35.5 µM [falling, single point]. Next, `Cc1nc(NCCc2cnc[nH]2)c2oc3ccccc3c2n1`: 1 µM [falling, full curve, poor fit]. As for `C(=C\c1ccco1)/c1ccc2ccccc2n1`, the AC50 was 1.26 µM [rising, full curve, poor fit].

With `O=C(NC(=S)Nc1ccc2c(c1)OCCO2)c1cccc(Br)c1`, the AC50 is 4.61 µM [rising, partial curve, poor fit]. Consider `COc1ccccc1Nc1nnc(SCC(=O)NC(=O)Nc2ccc3c(c2)OCCO3)s1`, for which the AC50 is 0.164 µM [rising, full curve, poor fit]. As to `CCCCn1nnc(NC(=O)Cc2ccc(Cl)cc2)n1`, the concentration at half-maximal activity (AC50) was 18.4 µM [falling, single point].

`O=[N+]([O-])c1cc(Br)c(O)c(C=Nc2ccc(N3CCOCC3)cc2)c1`: the concentration at half-maximal activity (AC50) was 15.8 µM [rising, partial curve, poor fit]. Next, `O=C(O)CCC(=O)Nc1ccc2c(c1)oc1ccccc12`: 0.058 µM [falling, full curve]; `COc1ccc(-c2cc(C(F)(F)F)n3nc(C(=O)N4CCN(C(=O)c5ccco5)CC4)cc3n2)cc1`: 10 µM [rising, partial curve, poor fit]; `CCOc1ccc(S(=O)(=O)N2CCOCC2)cc1NC(=O)CN1C(=O)NC(C)(c2ccccc2)C1=O` (stereo unspecified): 14.6 µM [rising, single point]. In the case of `Cc1ccccc1NC(=O)c1ccc(S(=O)(=O)C(F)F)cc1`, the half-maximal activity concentration (AC50) was 29.1 µM [falling, single point]. For the compound `COC(=O)c1cc(O)c(OCc2ccccc2)c(O)c1`, the AC50 was 14.6 µM [rising, partial curve, poor fit]. On to `Cc1cc(/C=N/NC(=O)c2ccc(O)cc2)c(C)n1CC(C)C`, for which the concentration at half-maximal activity (AC50) was 1.78 µM [falling, full curve]. In the case of `CCS(=O)(=O)N1CCN(c2ccc([N+](=O)[O-])c(NCc3cccnc3)c2)CC1`, the AC50 is 20 µM [rising, partial curve]. For the compound `CCCc1ccc(C(=O)[C@@H]2[C@@H](C(C)=O)N3c4ccc(F)cc4C=C[C@@H]3[C@@]23C(=O)Nc2ccccc23)cc1`, the AC50 was 0.316 µM [rising, partial curve, poor fit]. Next, `COc1cccc(NC(=O)CN(C)C(=O)c2csc3c2CCCC3)c1`: 23.1 µM [falling, single point]; `CCc1ccccc1NC(=O)c1cnn(-c2ccccc2)c1C`: 10 µM [falling, partial curve]. The same measure for `C=CCn1c(SCc2c(C)noc2C)nc2sc3c(c2c1=O)CCCC3`: 6.31 µM [rising, single point]. The same measure for `COc1ccc(NC(=O)c2cccs2)cc1OC`: 23.1 µM [falling, partial curve]; for `O=C(NCc1ccccc1F)c1ccc(S(=O)(=O)Nc2cccc(C(F)(F)F)c2)cc1`: 29.1 µM [falling, single point]; for `O=C(N/N=C/c1ccc[nH]1)c1ccc(Cl)cc1`: 29.1 µM [falling, single point]. Regarding `O=C1CC(Cc2ccccc2)C(=O)N1CCc1ccc2c(c1)OCO2` (stereo unspecified), the AC50 is 2.91 µM [rising, single point]. The same measure for `COc1ccc(-c2nn(CCC#N)cc2C=C(C#N)C#N)cc1`: 10 µM [falling, single point]. Next, `O=C(CN(C(=O)Cn1nnc(-c2ccc(F)cc2)n1)c1ccc(F)cc1)NC1CCCC1`: 39.8 µM [falling, partial curve, poor fit]; `COc1ccccc1C1=NOC(Cn2c(NCCCO)nc3c2c(=O)n(C)c(=O)n3C)C1` (stereo unspecified): 3.98 µM [rising, partial curve, poor fit]; `CCOc1ccccc1N1CCN(C(=O)CSc2ccc3c(c2)OCCO3)CC1`: 29.1 µM [rising, single point].

As for `O=C(NNC1=Nc2ccccc2SC1)c1ccc(F)cc1`, the concentration at half-maximal activity (AC50) is 0.501 µM [rising, full curve]. The same measure for `CCCCNc1nc(-c2ccccc2)nc(-n2ccnc2)n1`: 0.103 µM [falling, full curve, poor fit]. Next, `Cc1c(C(=O)OCC(=O)Nc2cccc(S(N)(=O)=O)c2)oc2c1ccc1ccccc12`: 35.5 µM [falling, single point]. `CCOC(=O)c1c(C)oc2ccc(NS(=O)(=O)c3cccs3)cc12`: the concentration at half-maximal activity (AC50) was 23.1 µM [falling, single point]. The same measure for `CCN1CCN(c2ccc(S(=O)(=O)N3CCCCC3)cc2NC(=O)COc2cc(C)ccc2Cl)CC1`: 29.1 µM [falling, single point]. Take `NNC(=S)Nc1ccc(OC(F)(F)F)cc1`: the AC50 is 5.01 µM [rising, full curve, poor fit]. The same measure for `Cc1ccc(-n2cc(CNCCCn3ccnc3C)c(-c3ccc(F)cc3)n2)cc1`: 35.5 µM [falling, single point]; for `CC(=O)Nc1ccc(C(=O)CN2C(=O)CSC2=O)cc1`: 12.6 µM [rising, partial curve, poor fit]. The same measure for `Cc1ccc(C)c(NC(=S)NCCSc2ccc(Cl)cc2)c1`: 9.2 µM [rising, partial curve, poor fit]. As for `CCOC(=O)C1(Cc2cccc(Cl)c2)CCCN(C2CCN(C(C)=O)CC2)C1` (stereo unspecified), the AC50 was 11.2 µM [falling, partial curve, poor fit]. The same measure for `NC(=O)N/N=C\c1cccs1`: 35.5 µM [rising, single point]; for `COc1cccc(C2=CC(c3ccccc3F)n3ncc(C(=O)Nc4ccc(C)cc4)c3N2)c1` (stereo unspecified): 35.5 µM [falling, single point]. Next, `O=C1CCCCC1Sc1nnc(-c2ccc3c(c2)OCO3)o1` (stereo unspecified): 6.31 µM [falling, partial curve]; `Cc1cc(C(=O)OCC(=O)N2CC(C)OC(C)C2)c(C)n1-c1ccccc1` (stereo unspecified): 23.1 µM [falling, single point].

Source of the values: PubChem BioAssay AID493014 (National Center for Advancing Translational Sciences (NCATS), 2011).
